PubChem BioAssay AID652243 | Drosophila RNAi Screening Center – 2013
Aim: 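Fly regulators of androgen-dependent reporter output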 (primary screen). Cells: Drosophila S2R+ cells. Reagents: long dsRNA against Drosophila genes. Time to read-out: 72 h (48 h, then 24 h hormone). Treatment: synthetic androgen R1881 at 10 nM for 24 h. Measurement: 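Per-well raw luminescence of the androgen-driven firefly reporter and of the Renilla control, two replicates each, without normalisation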. Reading the numbers: firefly reporter light: higher = more light from androgen-responsive reporter; Renilla control light: higher = more constitutive control signal (cell number, transfection). Active means: 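Across duplicate plates, a knock-down whose log firefly/Renilla ratio shifted a set fold down or up from the GFP/LacZ control mean was a hit; the downward cut appears as both 1.5 and 3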. Meaning of the calls: active = hit: reporter lowered or raised; inactive = no hit.
The screen tested about 24,000 reagents; below is a random part of those with a known target gene and a result. In the full data, 246 (1%) got an active call. 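Plates not normalised; calls are printed but the firefly/Renilla ratio behind them is not deposited; fold cut for lowering reported inconsistently.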 Raw values are not corrected between plates. Reagents against one gene are numbered here. A plus sign joins genes that one reagent is predicted to hit. No sequences are given here. Not stated in the record: the amount of reagent.

no.	target gene	reagent no.	firefly reporter light, replicate 1	firefly reporter light, replicate 2	Renilla control light, replicate 1	Renilla control light, replicate 2	activity call
1	CG8665	1	2.39e5	2.24e5	1.65e6	1.38e6	inactive
2	CG33012	1	2.64e5	2.00e5	1.52e6	1.46e6	inactive
3	CG33012	2	2.88e5	2.61e5	2.14e6	1.94e6	inactive
4	CG31549	1	9.08e5	7.36e5	2.41e6	1.69e6	inactive
5	Prtl99C	1	1.12e5	1.34e5	1.57e6	1.96e6	inactive
6	mRpL18	1	2.80e5	2.02e5	1.95e6	1.23e6	inactive
7	CG15563	1	1.75e5	1.75e5	2.36e6	2.78e6	inactive
8	CG15563	2	6.50e5	5.50e5	1.06e6	1.19e6	inactive
9	fz2	1	806	940	46519	29238	active
10	fz2	2	1.79e5	1.53e5	2.15e6	1.37e6	inactive
11	fne	1	2.63e5	2.03e5	2.45e6	2.20e6	inactive
12	fne	2	7.20e5	4.94e5	4.24e5	4.86e5	inactive
13	fne	3	4.35e5	4.13e5	3.32e5	3.03e5	inactive
14	CG2901	1	3.10e5	3.64e5	3.36e6	2.36e6	inactive
15	CG17780 + CG17781	1	92468	92601	2.11e6	2.39e6	inactive
16	CG17780 + CG17781	2	6.97e5	5.60e5	7.73e5	7.66e5	inactive
17	CG17780 + CG17781	3	2.94e5	3.00e5	3.93e5	3.50e5	inactive
18	srp	1	7.56e5	8.75e5	1.23e6	1.27e6	inactive
19	srp	2	2.16e5	2.88e5	1.16e6	1.16e6	inactive
20	CG10343	1	1.71e5	1.78e5	1.77e6	1.77e6	inactive
21	CG10343	2	2.00e5	1.93e5	4.30e5	4.49e5	inactive
22	CG18788	1	1.70e5	1.53e5	1.34e6	1.48e6	inactive
23	Rpn12R	1	1.65e5	1.47e5	1.97e6	1.19e6	inactive
24	IRSp53	1	1.31e5	1.12e5	1.54e6	1.86e6	inactive
25	Strip	1	5.03e5	1.01e6	1.14e6	1.70e6	inactive
26	Strip	2	5.39e5	6.40e5	1.01e6	1.01e6	inactive
27	Gyf	1	38314	44045	4.11e5	3.52e5	inactive
28	Gyf	2	4.27e5	4.23e5	7.97e5	9.91e5	inactive

Records listed so far whose gene name starts with S or s (4):
target gene	reagent no.	firefly reporter light, replicate 1	firefly reporter light, replicate 2	Renilla control light, replicate 1	Renilla control light, replicate 2	activity call
srp	1	7.56e5	8.75e5	1.23e6	1.27e6	inactive
srp	2	2.16e5	2.88e5	1.16e6	1.16e6	inactive
Strip	1	5.03e5	1.01e6	1.14e6	1.70e6	inactive
Strip	2	5.39e5	6.40e5	1.01e6	1.01e6	inactive

The list goes on.
no.	target gene	reagent no.	firefly reporter light, replicate 1	firefly reporter light, replicate 2	Renilla control light, replicate 1	Renilla control light, replicate 2	activity call
29	CG1677	1	2.20e5	2.69e5	3.68e6	4.49e6	inactive
30	CG13078	1	1.32e5	1.08e5	1.46e6	9.07e5	inactive
31	Axud1	1	62829	75259	7.63e5	7.65e5	inactive
32	CG3483	1	5.60e5	5.31e5	1.16e6	9.82e5	inactive
33	eIF2Bepsilon	1	92422	1.15e5	7.34e5	7.33e5	inactive
34	CG13309	1	2.21e5	1.95e5	2.01e6	1.92e6	inactive
35	CG14292	1	1.82e5	1.42e5	1.88e6	1.94e6	inactive
36	Cpr50Ca	1	1.20e5	2.34e5	3.34e5	4.10e5	inactive
37	Cpr50Ca	2	63188	98578	1.51e6	1.51e6	inactive
38	Cpr50Ca	3	78533	85819	2.58e6	2.58e6	inactive
39	CG15382	1	59824	71494	4.54e5	5.81e5	inactive
40	CG15382	2	4.85e5	4.22e5	6.20e5	5.42e5	inactive
41	CG17036	1	2.14e5	2.86e5	2.09e6	2.15e6	inactive
42	CG17036	2	2.75e5	2.37e5	7.06e5	5.97e5	inactive
43	mop	1	1.09e6	8.73e5	1.79e6	2.06e6	inactive
44	mop	2	2.85e5	5.46e5	5.42e5	1.10e6	inactive
45	mop	3					inactive
46	Arc1	1	1.64e5	1.76e5	1.11e6	8.05e5	inactive
47	Arc1	2	3.07e5	2.41e5	1.07e6	9.30e5	inactive
48	kat-60L1	1	57669	91827	4.14e5	3.56e5	inactive
49	kat-60L1	2	1.01e6	7.24e5	8.33e5	8.24e5	inactive
50	dpy	1	1.09e5	1.07e5	6.17e5	4.59e5	inactive
51	dpy	2	2.44e5	1.78e5	5.12e5	4.81e5	inactive
52	dpy	3	1.67e5	1.39e5	9.79e5	8.39e5	inactive
53	Cpr49Ad	1	3.07e5	2.16e5	2.59e6	1.56e6	inactive
54	CG32454	1	44161	56269	2.56e5	3.22e5	inactive
55	alphaTry	1	4.69e5	2.53e5	2.81e6	2.09e6	inactive
56	CG1889	1	1.60e5	1.27e5	1.26e6	1.24e6	inactive
57	CG1889	2	2.57e5	2.78e5	6.13e5	7.08e5	inactive
58	kl-3 (retired record)	1	7.08e5	6.60e5	8.93e5	7.92e5	inactive
59	kl-3 (retired record)	2	2.04e5	1.72e5	6.69e5	5.26e5	inactive
60	kl-3 (retired record)	3	6.42e5	6.22e5	3.58e5	3.33e5	inactive
61	CG4975 + CG4984	1	8.21e5	7.98e5	9.82e5	1.09e6	inactive
62	CG4975 + CG4984	2	5.15e5	6.07e5	7.32e5	1.20e6	inactive
63	Atg10	1	5.21e5	4.02e5	2.48e6	2.03e6	inactive
64	lark	1	7.67e5	6.44e5	1.43e6	1.14e6	inactive
65	lark	2	4.29e5	2.76e5	3.98e5	4.21e5	inactive
66	Rpn7	1	45751	45345	3.72e5	2.97e5	inactive
67	Rpn7	2	4.42e5	4.42e5	5.84e5	5.50e5	inactive
68	wcy	1	46623	73783	4.78e5	4.73e5	inactive
69	wcy	2	2.58e5	1.71e5	4.92e5	2.80e5	inactive
70	tbrd-2	1	90922	75013	8.33e5	8.74e5	inactive
71	CG15260	1	1.55e5	1.68e5	1.68e6	2.14e6	inactive
72	CR32511	1	6.05e5	6.93e5	3.49e6	3.48e6	inactive
73	Tasp1	1	54257	37550	4.53e5	4.25e5	inactive
74	CG8945	1	7.30e5	7.24e5	4.11e6	3.32e6	inactive
